Data as given in PubChem BioAssay AID504791 (Drosophila RNAi Screening Center, 2011).
Screen: 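Genes of the fly required for silencing by miRNA, siRNA or endo-siRNA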 (primary screen). Cell system: Drosophila S2-derived reporter cells. Reagent: long dsRNA against Drosophila genes, about 150-250 ng dsRNA per well (siRNA assay); about 80-120 ng (miRNA assay). Time to read-out: about 5 days (siRNA assay); about 4 days (miRNA assay). Treatment: copper sulfate induction of reporters: 25 µM (siRNA assay); 200 mM stated (miRNA assay), 1-2 days before reading. Measurement: 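Per-well ratio of Renilla over firefly light, expressed relative to that plate's average ratio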. Call rule: 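First-pass picks had plate-scaled ratios over 1.5 for the siRNA assay, over 1.6 for the miRNA assay, or under 0.6; two distinct dsRNAs had to score alike on retest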.
The screen tested about 23,000 reagents; shown is a random part of those with a known target gene and a result. Over the whole deposit, 199 (0.86%) are marked active. 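Plate-scaled ratios behind the calls are not deposited; printed light signals are raw; many rows marked increased or decreased are still called inactive.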 A number with no mark means an inactive call. A plus sign joins genes that one reagent is predicted to hit. Not given: the direction of the score.

Target gene	dsRNA	stable siRNA reporter change	miRNA reporter change	stable assay Renilla, run 1 (luminescence)	stable assay firefly, run 1 (luminescence)
CG32733 (retired record) + CG32797	DRSC17705	reporter ratio lowered past the hit cutoff		5048	3.97e5
CG10183	DRSC14203			7838	3.67e5
Cmpk	DRSC16643			6387	3.73e5
Fpgs2	DRSC00600	reporter ratio lowered past the hit cutoff		2792	4.49e5
Cyt-b5-r	DRSC03308			9326	5.14e5
CG12155	DRSC17826			5964	3.50e5
CG12155	DRSC23294	reporter ratio lowered past the hit cutoff		2124	2.53e5
CR11386 + CR33222	DRSC17781			5322	3.84e5
Nca	DRSC11233			7203	3.30e5
Spf30	DRSC11976			8996	4.80e5
DNAlig3	DRSC15201			7906	3.78e5
CG32984	DRSC21602			9758	4.69e5
Utx	DRSC02872			6274	3.64e5
CG5783	DRSC02894			8395	4.96e5
tum	DRSC07575			5287	2.60e5
tapas	DRSC05950			9810	3.27e5
CG14882	DRSC15006			8134	3.23e5
Camta	DRSC06440			5075	2.57e5
Camta	DRSC06441			3276	2.03e5
Camta	DRSC07272			7862	4.46e5
Camta	DRSC23081			4935	3.48e5
Camta	DRSC23156			4136	2.83e5
Camta	DRSC27929		reporter ratio lowered past the hit cutoff		
Alp1	DRSC11781			9915	4.36e5
Gmd	DRSC03119			8643	1.41e5
CG12617	DRSC02176			7547	5.65e5
Cyp313a4	DRSC16627			6739	4.07e5
Tpc1	DRSC15614			6740	3.90e5
Tpc1	DRSC16074			7871	3.86e5
JMJD5	DRSC08372			6231	4.05e5
CG42813 + CG42814	DRSC15939			7388	3.84e5
CG42813 + CG42814	DRSC15940			6708	3.87e5
Xxylt	DRSC04107			10560	1.80e6
AMPdeam	DRSC18996			2888	2.73e5
AMPdeam	DRSC19366			7822	5.83e5
AMPdeam	DRSC19368			6307	5.53e5
AMPdeam	DRSC19727			6614	6.33e5
RagA-B	DRSC14450			9495	5.81e5
CG13551	DRSC21847			9191	7.20e5
chk	DRSC04994			8974	1.49e6
CG7488	DRSC16250			6164	5.58e5
CG10527	DRSC04078			50926	6.43e5
c(3)G	DRSC15245			10038	4.22e5
CG13992	DRSC02324			6186	3.15e5
CG42809 + CG42810	DRSC02532			6947	5.42e5
CG42809 + CG42810	DRSC02533			7680	3.71e5
CG12290	DRSC14497			7340	3.62e5
Sec16	DRSC19788			4571	3.96e5
Sec16	DRSC19858			4563	3.79e5
Dscam4	DRSC08911			5690	5.94e5
Dscam4	DRSC08913			5279	5.00e5
Dscam4	DRSC10031			6190	5.10e5
Dscam4	DRSC10329			6123	4.23e5
Dscam4	DRSC10765			5588	4.22e5
Nup98-96	DRSC14209			7932	3.30e5
Nup98-96	DRSC14210			7679	3.22e5
Rnmt	DRSC03558			9283	4.47e5
Six4	DRSC11881			6555	4.19e5
Cyp4ac1	DRSC03302			11327	7.52e5
ICA69	DRSC11621			9667	3.62e5
iotaTry	DRSC07634			5683	2.93e5
CG32445	DRSC11678			7491	3.59e5
mth	DRSC08725			8226	2.97e5
alphaSnap	DRSC11285	reporter ratio raised past the hit cutoff (active)		5920	1.36e5
alphaSnap	DRSC29788		reporter ratio raised past the hit cutoff		
CG13177	DRSC06303			5423	3.81e5
CG12310	DRSC09878			8011	3.58e5
CG18449	DRSC06754			6931	4.16e5
Pbgs	DRSC09718			6595	4.04e5
endos	DRSC10658	reporter ratio lowered past the hit cutoff		11499	7.26e5
Jon99Fii	DRSC15430			6234	3.76e5
Oatp74D	DRSC09491			5731	4.36e5
Oatp74D	DRSC10883			7866	2.94e5
WRNexo	DRSC16278			8618	3.05e5
CG9590	DRSC16506			10903	4.89e5
Hyccin	DRSC06983			7279	3.20e5
CG16957	DRSC02545			7654	3.83e5
CG1142	DRSC12531			5907	4.77e5
CG5805	DRSC15878			7817	3.70e5
CG33110	DRSC14694			4966	2.65e5
CG33110	DRSC16137			7066	3.99e5
zyd	DRSC20716			5263	2.85e5
CG14075	DRSC10080			6763	4.33e5

Laid out differently: results already given
Target gene | dsRNA | stable siRNA reporter change | miRNA reporter change | stable assay Renilla, run 1 (luminescence) | stable assay firefly, run 1 (luminescence)
CG12155 | DRSC23294 | reporter ratio lowered past the hit cutoff | – | 2124 | 2.53e5
CR11386 + CR33222 | DRSC17781 | – | – | 5322 | 3.84e5
Nca | DRSC11233 | – | – | 7203 | 3.30e5
Spf30 | DRSC11976 | – | – | 8996 | 4.80e5
DNAlig3 | DRSC15201 | – | – | 7906 | 3.78e5
CG32984 | DRSC21602 | – | – | 9758 | 4.69e5
Utx | DRSC02872 | – | – | 6274 | 3.64e5
CG5783 | DRSC02894 | – | – | 8395 | 4.96e5
tum | DRSC07575 | – | – | 5287 | 2.60e5
tapas | DRSC05950 | – | – | 9810 | 3.27e5
CG14882 | DRSC15006 | – | – | 8134 | 3.23e5
Camta | DRSC06440 | – | – | 5075 | 2.57e5
